The supplement of paper PMC12823440, “Inhibitors supercharge kinase turnover through native proteolytic circuits” (Nature, 2025)
Counter-ions that a name gives are not always drawn. This is one part of the list. Hit calls seldom repeat between salt and free forms of one compound.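 Kinases, fused to nanoluciferase, were expressed in K562 cells; luminescence was measured every 4 h from 2 to 18 h as percent of control (DMSO = 100%, positive control = 0%). A time point is decreased if signal falls significantly (2 sigma). Hits were called by the authors by a rule that is not shown; the count of time points alone does not decide it.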

The chains behind the UniProt entries cited, without tags or fusion partners. Where a name states a change or a piece, a line headed by the entry shows the natural chain unless it says otherwise.
UniProt Q9Y616: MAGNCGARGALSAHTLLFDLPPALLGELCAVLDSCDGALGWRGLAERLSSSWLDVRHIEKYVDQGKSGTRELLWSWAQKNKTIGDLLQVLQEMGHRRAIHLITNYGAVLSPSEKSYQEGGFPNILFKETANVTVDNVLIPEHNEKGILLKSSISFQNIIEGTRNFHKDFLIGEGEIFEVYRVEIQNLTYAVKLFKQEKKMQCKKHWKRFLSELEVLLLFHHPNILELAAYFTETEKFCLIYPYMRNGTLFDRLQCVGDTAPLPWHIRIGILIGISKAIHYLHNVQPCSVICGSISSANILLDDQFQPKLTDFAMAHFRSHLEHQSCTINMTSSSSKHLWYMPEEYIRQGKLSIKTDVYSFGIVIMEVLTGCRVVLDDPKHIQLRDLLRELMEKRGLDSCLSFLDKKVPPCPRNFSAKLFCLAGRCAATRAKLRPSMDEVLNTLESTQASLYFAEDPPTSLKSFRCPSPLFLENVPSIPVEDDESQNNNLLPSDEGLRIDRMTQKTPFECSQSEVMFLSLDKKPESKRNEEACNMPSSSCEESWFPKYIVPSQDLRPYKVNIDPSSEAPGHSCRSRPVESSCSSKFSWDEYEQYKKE
UniProt P53671: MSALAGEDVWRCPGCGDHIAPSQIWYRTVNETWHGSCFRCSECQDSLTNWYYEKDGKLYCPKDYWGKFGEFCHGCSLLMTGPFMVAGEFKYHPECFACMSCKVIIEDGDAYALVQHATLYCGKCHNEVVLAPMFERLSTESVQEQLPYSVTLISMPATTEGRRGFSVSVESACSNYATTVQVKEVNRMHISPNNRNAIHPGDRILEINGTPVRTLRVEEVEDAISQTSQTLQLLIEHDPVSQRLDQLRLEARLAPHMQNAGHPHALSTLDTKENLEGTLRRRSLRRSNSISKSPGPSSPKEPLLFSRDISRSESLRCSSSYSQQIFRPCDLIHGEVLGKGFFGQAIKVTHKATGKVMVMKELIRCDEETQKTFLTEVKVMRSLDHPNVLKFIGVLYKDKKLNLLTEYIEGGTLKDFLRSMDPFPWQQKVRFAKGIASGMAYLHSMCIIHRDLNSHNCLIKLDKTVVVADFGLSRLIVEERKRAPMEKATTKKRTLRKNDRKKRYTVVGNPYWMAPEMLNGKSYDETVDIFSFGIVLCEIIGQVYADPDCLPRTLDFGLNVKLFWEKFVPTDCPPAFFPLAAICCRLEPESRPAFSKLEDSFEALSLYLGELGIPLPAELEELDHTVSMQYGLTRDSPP
UniProt Q8IWU2: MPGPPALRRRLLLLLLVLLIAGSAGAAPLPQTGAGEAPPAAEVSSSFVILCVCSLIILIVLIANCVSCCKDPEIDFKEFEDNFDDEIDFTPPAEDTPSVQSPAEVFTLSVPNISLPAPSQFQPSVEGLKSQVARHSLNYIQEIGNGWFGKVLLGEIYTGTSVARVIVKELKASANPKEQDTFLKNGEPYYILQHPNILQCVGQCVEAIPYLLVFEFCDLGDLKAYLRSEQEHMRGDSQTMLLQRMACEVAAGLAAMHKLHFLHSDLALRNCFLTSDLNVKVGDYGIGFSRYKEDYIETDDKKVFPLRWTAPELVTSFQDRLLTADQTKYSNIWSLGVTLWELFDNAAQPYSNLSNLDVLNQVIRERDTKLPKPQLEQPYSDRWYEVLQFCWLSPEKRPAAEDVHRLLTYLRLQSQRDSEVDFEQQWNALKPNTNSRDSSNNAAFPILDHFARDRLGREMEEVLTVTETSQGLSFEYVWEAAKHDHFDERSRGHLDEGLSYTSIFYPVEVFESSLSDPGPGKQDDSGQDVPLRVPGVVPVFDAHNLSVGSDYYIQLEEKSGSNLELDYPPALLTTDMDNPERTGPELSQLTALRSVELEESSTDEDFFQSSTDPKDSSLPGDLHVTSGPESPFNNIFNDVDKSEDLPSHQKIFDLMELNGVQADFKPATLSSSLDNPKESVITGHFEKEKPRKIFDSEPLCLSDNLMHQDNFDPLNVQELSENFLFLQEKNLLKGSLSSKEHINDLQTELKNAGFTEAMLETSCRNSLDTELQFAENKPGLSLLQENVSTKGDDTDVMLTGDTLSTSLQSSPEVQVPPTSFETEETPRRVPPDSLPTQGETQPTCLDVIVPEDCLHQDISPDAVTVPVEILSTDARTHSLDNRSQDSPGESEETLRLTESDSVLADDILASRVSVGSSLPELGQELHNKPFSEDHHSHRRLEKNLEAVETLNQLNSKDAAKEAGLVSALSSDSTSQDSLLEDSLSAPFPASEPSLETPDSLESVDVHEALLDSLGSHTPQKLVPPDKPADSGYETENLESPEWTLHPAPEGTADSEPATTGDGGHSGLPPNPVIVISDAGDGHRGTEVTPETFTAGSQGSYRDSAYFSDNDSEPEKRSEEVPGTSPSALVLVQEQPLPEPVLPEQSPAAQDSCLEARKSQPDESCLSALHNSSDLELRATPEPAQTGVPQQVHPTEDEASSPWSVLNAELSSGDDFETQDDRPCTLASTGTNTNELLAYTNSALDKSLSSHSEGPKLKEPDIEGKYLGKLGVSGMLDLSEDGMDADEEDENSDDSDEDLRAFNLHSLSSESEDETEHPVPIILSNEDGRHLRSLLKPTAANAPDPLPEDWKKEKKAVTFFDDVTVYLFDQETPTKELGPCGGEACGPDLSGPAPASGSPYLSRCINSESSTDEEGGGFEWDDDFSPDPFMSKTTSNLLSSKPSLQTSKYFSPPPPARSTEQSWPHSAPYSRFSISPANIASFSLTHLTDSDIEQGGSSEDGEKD
UniProt P07948: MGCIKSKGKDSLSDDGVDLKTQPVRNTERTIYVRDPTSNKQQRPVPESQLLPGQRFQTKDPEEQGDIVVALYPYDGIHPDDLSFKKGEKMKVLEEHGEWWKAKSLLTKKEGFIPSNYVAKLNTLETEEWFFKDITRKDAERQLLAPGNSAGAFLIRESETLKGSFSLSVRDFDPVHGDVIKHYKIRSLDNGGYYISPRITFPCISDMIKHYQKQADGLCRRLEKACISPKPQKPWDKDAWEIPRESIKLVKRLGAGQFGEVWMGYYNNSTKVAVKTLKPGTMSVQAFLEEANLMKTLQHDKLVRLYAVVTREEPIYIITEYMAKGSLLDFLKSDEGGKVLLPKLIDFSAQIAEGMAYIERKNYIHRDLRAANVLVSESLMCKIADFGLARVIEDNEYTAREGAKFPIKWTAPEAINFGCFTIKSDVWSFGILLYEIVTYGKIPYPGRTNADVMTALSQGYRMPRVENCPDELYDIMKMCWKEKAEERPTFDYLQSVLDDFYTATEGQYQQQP
UniProt Q12851: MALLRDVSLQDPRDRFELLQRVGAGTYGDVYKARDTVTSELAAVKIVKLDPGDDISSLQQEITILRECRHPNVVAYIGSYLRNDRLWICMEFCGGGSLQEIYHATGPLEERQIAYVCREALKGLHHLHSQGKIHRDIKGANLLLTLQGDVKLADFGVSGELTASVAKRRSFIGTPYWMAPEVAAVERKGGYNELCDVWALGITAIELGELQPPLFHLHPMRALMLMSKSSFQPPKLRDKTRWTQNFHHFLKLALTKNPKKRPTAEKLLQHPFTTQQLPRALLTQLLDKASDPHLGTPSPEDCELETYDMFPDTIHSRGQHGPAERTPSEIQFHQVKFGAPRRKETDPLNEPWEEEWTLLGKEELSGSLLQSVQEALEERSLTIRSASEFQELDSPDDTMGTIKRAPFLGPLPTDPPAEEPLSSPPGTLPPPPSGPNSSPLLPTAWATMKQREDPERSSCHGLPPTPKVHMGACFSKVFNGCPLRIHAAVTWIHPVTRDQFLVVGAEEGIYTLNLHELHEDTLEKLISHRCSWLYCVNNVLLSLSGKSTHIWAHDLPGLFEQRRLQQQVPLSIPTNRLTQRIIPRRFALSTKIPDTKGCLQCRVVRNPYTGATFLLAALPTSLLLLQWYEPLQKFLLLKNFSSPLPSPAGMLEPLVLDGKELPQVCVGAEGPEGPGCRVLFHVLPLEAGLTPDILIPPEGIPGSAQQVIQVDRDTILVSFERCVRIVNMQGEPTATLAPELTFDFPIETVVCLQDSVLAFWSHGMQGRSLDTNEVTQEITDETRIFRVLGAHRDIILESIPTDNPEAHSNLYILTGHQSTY
UniProt P28482, whole entry: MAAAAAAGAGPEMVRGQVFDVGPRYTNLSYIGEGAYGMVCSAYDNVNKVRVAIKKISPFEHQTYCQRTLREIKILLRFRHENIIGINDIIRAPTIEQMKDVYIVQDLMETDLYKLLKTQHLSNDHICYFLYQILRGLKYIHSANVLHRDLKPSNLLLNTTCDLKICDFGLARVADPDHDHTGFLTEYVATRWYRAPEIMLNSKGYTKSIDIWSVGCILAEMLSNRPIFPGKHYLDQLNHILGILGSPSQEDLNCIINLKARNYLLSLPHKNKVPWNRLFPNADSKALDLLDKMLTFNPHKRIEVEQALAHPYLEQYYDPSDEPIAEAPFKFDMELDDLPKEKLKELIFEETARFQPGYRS
UniProt P49137, whole entry, looked up: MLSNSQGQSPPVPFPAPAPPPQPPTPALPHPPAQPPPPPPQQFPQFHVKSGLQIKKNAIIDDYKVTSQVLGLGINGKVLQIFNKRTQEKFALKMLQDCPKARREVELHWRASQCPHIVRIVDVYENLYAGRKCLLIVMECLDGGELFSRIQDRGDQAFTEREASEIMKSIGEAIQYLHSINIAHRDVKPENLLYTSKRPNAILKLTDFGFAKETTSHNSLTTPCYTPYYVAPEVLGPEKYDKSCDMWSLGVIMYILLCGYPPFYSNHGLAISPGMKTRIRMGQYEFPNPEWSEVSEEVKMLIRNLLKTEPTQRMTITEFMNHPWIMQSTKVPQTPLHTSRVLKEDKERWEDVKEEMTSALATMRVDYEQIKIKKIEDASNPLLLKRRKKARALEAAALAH
UniProt Q16620, whole entry, looked up: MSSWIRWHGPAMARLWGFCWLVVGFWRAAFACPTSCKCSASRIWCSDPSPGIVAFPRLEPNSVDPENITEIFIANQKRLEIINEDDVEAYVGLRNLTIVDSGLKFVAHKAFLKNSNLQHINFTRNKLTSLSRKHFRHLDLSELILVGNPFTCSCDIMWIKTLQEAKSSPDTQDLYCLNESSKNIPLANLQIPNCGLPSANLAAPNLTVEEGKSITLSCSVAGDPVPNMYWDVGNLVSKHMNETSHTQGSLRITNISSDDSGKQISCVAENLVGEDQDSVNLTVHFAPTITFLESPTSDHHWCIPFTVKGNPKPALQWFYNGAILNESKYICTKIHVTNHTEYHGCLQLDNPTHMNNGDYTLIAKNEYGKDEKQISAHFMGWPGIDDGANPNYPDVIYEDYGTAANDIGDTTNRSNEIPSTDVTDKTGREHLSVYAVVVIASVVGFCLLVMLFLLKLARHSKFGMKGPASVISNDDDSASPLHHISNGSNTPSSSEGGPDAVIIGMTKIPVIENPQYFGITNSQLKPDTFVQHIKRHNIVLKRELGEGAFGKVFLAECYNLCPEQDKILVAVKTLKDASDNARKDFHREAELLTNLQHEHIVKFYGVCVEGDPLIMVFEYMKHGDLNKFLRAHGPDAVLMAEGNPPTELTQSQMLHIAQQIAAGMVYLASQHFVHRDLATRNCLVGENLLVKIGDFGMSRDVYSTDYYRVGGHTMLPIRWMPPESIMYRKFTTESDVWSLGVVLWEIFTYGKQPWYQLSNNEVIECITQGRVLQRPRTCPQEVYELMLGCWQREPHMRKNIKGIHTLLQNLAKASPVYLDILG
UniProt Q16288, whole entry, looked up: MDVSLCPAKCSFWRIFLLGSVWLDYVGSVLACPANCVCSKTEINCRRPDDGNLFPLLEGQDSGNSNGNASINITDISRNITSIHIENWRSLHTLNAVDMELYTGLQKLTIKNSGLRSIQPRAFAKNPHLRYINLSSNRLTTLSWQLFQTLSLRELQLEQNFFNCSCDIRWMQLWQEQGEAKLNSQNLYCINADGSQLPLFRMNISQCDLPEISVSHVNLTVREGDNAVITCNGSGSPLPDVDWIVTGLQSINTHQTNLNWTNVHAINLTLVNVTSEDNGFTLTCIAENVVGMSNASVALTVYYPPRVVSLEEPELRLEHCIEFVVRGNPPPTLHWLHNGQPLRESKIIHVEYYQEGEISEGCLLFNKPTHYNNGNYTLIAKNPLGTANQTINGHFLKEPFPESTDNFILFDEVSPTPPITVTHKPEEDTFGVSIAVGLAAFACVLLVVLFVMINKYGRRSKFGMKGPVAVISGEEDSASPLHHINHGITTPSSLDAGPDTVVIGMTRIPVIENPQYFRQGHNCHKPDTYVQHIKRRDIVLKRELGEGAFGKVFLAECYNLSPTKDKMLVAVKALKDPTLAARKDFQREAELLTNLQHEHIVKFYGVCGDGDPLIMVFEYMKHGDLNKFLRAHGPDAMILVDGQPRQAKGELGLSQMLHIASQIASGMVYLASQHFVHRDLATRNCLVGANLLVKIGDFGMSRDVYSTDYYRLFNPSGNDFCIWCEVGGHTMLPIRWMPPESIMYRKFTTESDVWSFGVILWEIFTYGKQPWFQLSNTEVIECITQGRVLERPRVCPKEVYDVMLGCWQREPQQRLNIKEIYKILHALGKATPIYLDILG

Assays:
Experiment in all cases: kinase-Nluc reporter destabilization hit call (1 = scored as downregulated) (binary); higher = compound decreases kinase abundance
Conditions in all cases: K562; 2-18 h
[1] = target: IRAK3 (UniProt Q9Y616)
[2] = target: JAK1 (UniProt P23458)
[3] = target: LCK (UniProt P06239)
[4] = target: LIMK1 (UniProt P53667)
[5] = target: LIMK2 (UniProt P53671)
[6] = target: LMTK2 (UniProt Q8IWU2)
[7] = target: LYN (UniProt P07948)
[8] = target: MAP2K1 (UniProt Q02750)
[9] = target: MAP2K2 (UniProt P36507)
[10] = target: MAP4K2 (UniProt Q12851)
[11] = target: MAPK1 (UniProt P28482)
[12] = target: MAPK4 (UniProt P31152)
[13] = target: MAPKAPK2 (UniProt P49137)
[14] = target: MKNK1 (UniProt Q9BUB5)
[15] = target: NTRK2 (UniProt Q16620)
[16] = target: NTRK3 (UniProt Q16288)
[17] = target: PAK4 (UniProt O96013)
[18] = target: PBK (UniProt Q96KB5)
[19] = target: PDGFRB (UniProt P09619)
[20] = target: PDK1 (UniProt Q15118)

Measured: kinase-Nluc reporter destabilization hit call

Cn1sc(=O)n(Cc2ccccc2)c1=O (10 µM)
inactive: [1] 0 | [2] 0 | [3] 0 | [4] 0 | [5] 0 | [6] 0 | [7] 0 | [8] 0 | [9] 0 | [10] 0 | [11] 0 | [12] 0 | [13] 0 | [14] 0 | [15] 0 | [16] 0 | [17] 0 | [18] 0 | [19] 0 | [20] 0

COC[C@H]1Cn2cc(-c3nc(Nc4ccnn4C)ncc3C)nc2C(=O)N1Cc1ccc(F)c(F)c1 (10 µM)
inactive: [1] 0 | [2] 0 | [3] 0 | [4] 0 | [5] 0 | [6] 0 | [7] 0 | [8] 0 | [9] 0 | [10] 0 | [11] 0 | [12] 0 | [13] 0 | [14] 0 | [15] 0 | [16] 0 | [17] 0 | [18] 0 | [19] 0 | [20] 0

C[C@H](Nc1ccc2c(c1)OCCn1cc(N3C(=O)OC[C@H]3C(F)F)nc1-2)C(N)=O (10 µM)
inactive: [1] 0 | [2] 0 | [3] 0 | [4] 0 | [5] 0 | [6] 0 | [7] 0 | [8] 0 | [9] 0 | [10] 0 | [11] 0 | [12] 0 | [13] 0 | [14] 0 | [15] 0 | [16] 0 | [17] 0 | [18] 0 | [19] 0 | [20] 0

Reprinted from above (two entries):
COC[C@H]1Cn2cc(-c3nc(Nc4ccnn4C)ncc3C)nc2C(=O)N1Cc1ccc(F)c(F)c1 (10 µM)
inactive: [1] 0 | [2] 0 | [3] 0 | [4] 0 | [5] 0 | [6] 0 | [7] 0 | [8] 0 | [9] 0 | [10] 0 | [11] 0 | [12] 0 | [13] 0 | [14] 0 | [15] 0 | [16] 0 | [17] 0 | [18] 0 | [19] 0 | [20] 0

C[C@H](Nc1ccc2c(c1)OCCn1cc(N3C(=O)OC[C@H]3C(F)F)nc1-2)C(N)=O (10 µM)
inactive: [1] 0 | [2] 0 | [3] 0 | [4] 0 | [5] 0 | [6] 0 | [7] 0 | [8] 0 | [9] 0 | [10] 0 | [11] 0 | [12] 0 | [13] 0 | [14] 0 | [15] 0 | [16] 0 | [17] 0 | [18] 0 | [19] 0 | [20] 0

The list continues:

CC(C)[C@H](CO)Nc1nc(Nc2ccc(C(=O)O)c(Cl)c2)c2ncn(C(C)C)c2n1 [Purvalanol B] (10 µM)
inactive: [1] 0 | [2] 0 | [3] 0 | [4] 0 | [5] 0 | [6] 0 | [7] 0 | [8] 0 | [9] 0 | [10] 0 | [11] 0 | [12] 0 | [13] 0 | [14] 0 | [15] 0 | [16] 0 | [17] 0 | [18] 0 | [19] 0 | [20] 0

O=C(O)[C@]1(Cc2cccc(Nc3nccs3)n2)CC[C@@H](Oc2cccc(Cl)c2F)CC1 (2.5 µM)
inactive: [1] 0 | [2] 0 | [3] 0 | [4] 0 | [5] 0 | [6] 0 | [7] 0 | [8] 0 | [9] 0 | [10] 0 | [11] 0 | [12] 0 | [13] 0 | [14] 0 | [15] 0 | [16] 0 | [17] 0 | [18] 0 | [19] 0 | [20] 0

C[C@H]1CNC(=O)c2cnn3ccc(nc23)N[C@H](C)c2cc(F)ccc2O1 [Repotrectinib] (2.5 µM)
inactive: [1] 0 | [2] 0 | [3] 0 | [4] 0 | [5] 0 | [6] 0 | [7] 0 | [8] 0 | [9] 0 | [10] 0 | [11] 0 | [12] 0 | [13] 0 | [14] 0 | [15] 0 | [16] 0 | [17] 0 | [18] 0 | [19] 0 | [20] 0

CC(=O)Nc1nc(C)c(-c2cc3c(c(S(C)(=O)=O)c2)C(=O)N([C@@H](C)C2CC2)C3)s1 (2.5 µM)
inactive: [1] 0 | [2] 0 | [3] 0 | [4] 0 | [5] 0 | [6] 0 | [7] 0 | [8] 0 | [9] 0 | [10] 0 | [11] 0 | [12] 0 | [13] 0 | [14] 0 | [15] 0 | [16] 0 | [17] 0 | [18] 0 | [19] 0 | [20] 0

CNC(=O)c1ccc(-c2cnc3ncc(Cc4ccc5ncccc5c4)n3n2)cc1F [Capmatinib] (10 µM)
inactive: [1] 0 | [2] 0 | [3] 0 | [4] 0 | [5] 0 | [6] 0 | [7] 0 | [8] 0 | [9] 0 | [10] 0 | [11] 0 | [12] 0 | [13] 0 | [14] 0 | [15] 0 | [16] 0 | [17] 0 | [18] 0 | [19] 0 | [20] 0

CS(=O)(=O)N1CCc2c(-c3cnc(N)nc3)nc(N3CCOCC3)nc21 (10 µM)
inactive: [1] 0 | [2] 0 | [3] 0 | [4] 0 | [5] 0 | [6] 0 | [7] 0 | [8] 0 | [9] 0 | [10] 0 | [11] 0 | [12] 0 | [13] 0 | [14] 0 | [15] 0 | [16] 0 | [17] 0 | [18] 0 | [19] 0 | [20] 0

Cc1c(Br)c(Br)c2c3c1nc(N1CCNCC1)n3CCC2 [SEL120-34A (monohydrochloride)] (2.5 µM)
inactive: [1] 0 | [2] 0 | [3] 0 | [4] 0 | [5] 0 | [6] 0 | [7] 0 | [8] 0 | [9] 0 | [10] 0 | [11] 0 | [12] 0 | [13] 0 | [14] 0 | [15] 0 | [16] 0 | [17] 0 | [18] 0 | [19] 0 | [20] 0

COc1cc(-c2cc(-c3cccc(O)c3)cnc2N)cc(OC)c1OC (2.5 µM)
inactive: [1] 0 | [2] 0 | [3] 0 | [4] 0 | [5] 0 | [6] 0 | [7] 0 | [8] 0 | [9] 0 | [10] 0 | [11] 0 | [12] 0 | [13] 0 | [14] 0 | [15] 0 | [16] 0 | [17] 0 | [18] 0 | [19] 0 | [20] 0

Cc1cc(F)c(Nc2ncnc3cc(OCc4ccccc4)ccc23)cc1O (10 µM)
inactive: [1] 0 | [2] 0 | [3] 0 | [4] 0 | [5] 0 | [6] 0 | [7] 0 | [8] 0 | [9] 0 | [10] 0 | [11] 0 | [12] 0 | [13] 0 | [14] 0 | [15] 0 | [16] 0 | [17] 0 | [18] 0 | [19] 0 | [20] 0

Cc1ccc(-c2csc(Cn3nc(CC4OCCCO4)c4ccccc4c3=O)n2)cc1 (10 µM)
inactive: [1] 0 | [2] 0 | [3] 0 | [4] 0 | [5] 0 | [6] 0 | [7] 0 | [8] 0 | [9] 0 | [10] 0 | [11] 0 | [12] 0 | [13] 0 | [14] 0 | [15] 0 | [16] 0 | [17] 0 | [18] 0 | [19] 0 | [20] 0

CN(C/C=C/C(=O)Nc1ccc(C(=O)Nc2cccc(Nc3ncc(Cl)c(-c4c[nH]c5ccccc45)n3)c2)cc1)CCCNC(=O)NCCOCCOCCOCCNC(=O)CCCC[C@@H]1SC[C@@H]2NC(=O)N[C@@H]21 (2.5 µM)
inactive: [1] 0 | [2] 0 | [3] 0 | [4] 0 | [5] 0 | [6] 0 | [7] 0 | [8] 0 | [9] 0 | [10] 0 | [11] 0 | [12] 0 | [13] 0 | [14] 0 | [15] 0 | [16] 0 | [17] 0 | [18] 0 | [19] 0 | [20] 0

CC(C)(C)S(=O)(=O)c1ccc2nccc(Nc3n[nH]c4ccc(F)cc34)c2c1 (10 µM)
inactive: [1] 0 | [2] 0 | [3] 0 | [4] 0 | [5] 0 | [6] 0 | [7] 0 | [8] 0 | [9] 0 | [10] 0 | [11] 0 | [12] 0 | [13] 0 | [14] 0 | [15] 0 | [16] 0 | [17] 0 | [18] 0 | [19] 0 | [20] 0

Cc1nc(Nc2ncc(C(=O)Nc3c(C)cccc3Cl)s2)cc(N2CCN(C(=O)CCCCCCC(=O)N[C@H](C(=O)N3C[C@H](O)C[C@H]3C(=O)NCc3ccc(-c4scnc4C)cc3)C(C)(C)C)CC2)n1 (2.5 µM)
inactive: [1] 0 | [2] 0 | [3] 0 | [4] 0 | [5] 0 | [6] 0 | [7] 0 | [8] 0 | [9] 0 | [10] 0 | [11] 0 | [12] 0 | [13] 0 | [14] 0 | [15] 0 | [16] 0 | [17] 0 | [18] 0 | [19] 0 | [20] 0

C[C@@H]1CN(Cc2cn[nH]c2-c2ccc(C#N)cc2)CCN1c1ccc(C(F)(F)F)cn1 (2.5 µM)
inactive: [1] 0 | [2] 0 | [3] 0 | [4] 0 | [5] 0 | [6] 0 | [7] 0 | [8] 0 | [9] 0 | [10] 0 | [11] 0 | [12] 0 | [13] 0 | [14] 0 | [15] 0 | [16] 0 | [17] 0 | [18] 0 | [19] 0 | [20] 0

C[C@]1(O)C[C@@](N)(c2ccc(-c3nc4n(c3-c3ccccc3)COc3ccncc3-4)cc2)C1 [TAS-117 (hydrochloride)] (10 µM)
inactive: [1] 0 | [2] 0 | [3] 0 | [4] 0 | [5] 0 | [6] 0 | [7] 0 | [8] 0 | [9] 0 | [10] 0 | [11] 0 | [12] 0 | [13] 0 | [14] 0 | [15] 0 | [16] 0 | [17] 0 | [18] 0 | [19] 0 | [20] 0
